Paper PMC8272040

System: human alpha-thrombin (Homo sapiens)
Test: sandwich proximity extension/transcription, AuNP colorimetric and molecular beacon read-out
Conditions: 1x T7 RNA polymerase buffer (40 mM Tris-HCl pH 8.0, 8 mM MgCl2, 2 mM spermidine), 5 mM DTT, 15% DMSO, NTPs/dNTPs, 0.2 uM each probe, 42 C, commercial protein, single-stranded DNA

Sequence: AGTCCGTGGTAGGGCAGGTTGGGGTGACTTTTTTTTTTTCTTTTGCCGGTTGTTGACGATTCGTAGTTGATGATCGGGTACTAGCC [Probe-B (HD22 aptamer)]
- binding result (with Probe-A, 8 mM Mg2+, assay LOD 4 nM (not a Kd)): binds

Sequence: CGCCTAGGTTGGGTAGGGTGGTGGCGTTTTTTTTTTAATTCTAATACGACTCACTATAGGGAGAGGCAATAGCTCTGGCAATTTCTTAGGCTAG [Probe-A (NU172 aptamer + T7 promoter)]
- binding result (with Probe-B, 8 mM Mg2+, assay LOD 4 nM (not a Kd)): binds

Sequence: TTTTTTTTTTAATTCTAATACGACTCACTATAGGGAGAGGCAATAGCTCTGGCAATTTCTTAGGCTAG [NA (Probe-A without aptamer)]
- binding result (with NB, 100 nM thrombin, no signal): no binding

Sequence: TTTTTTTTTTCTTTTGCCGGTTGTTGACGATTCGTAGTTGATGATCGGGTACTAGCC [NB (Probe-B without aptamer)]
- binding result (with NA, 100 nM thrombin, no signal): no binding

No signal at the amounts used counts as a negative. At least one verdict was read from the data and is not stated in words by the source. The exact form of at least one protein or probe is not confirmed.
